Results on one compound are retold here after paper PMC9246774, “Construction and Functional Evaluation of a Three-Dimensional Blood–Brain Barrier Model Equipped With Human Induced Pluripotent Stem Cell-Derived Brain Microvascular Endothelial Cells” (Pharmaceutical Research, 2022).

The series is described as follows: Permeability experiments in the 3D-BBB system (hiPS-BMECs on OrganoPlate 3-lane). To be noted: human. As to the method: The 3D-BBB system using the OrganoPlate® 3-lane plate was constructed with some modifications to the protocol published by MIMETAS. During the differentiation of hiPS-BMECs, to separate the capillary side from the brain side, extracellular matrix hydrogel composed of 4 mg/mL collagen I (Cultrex 3D Matrix Rat Collagen-I, 5 mg/mL, AMSbio), 100 mM HEPES, and 3.7 mg/mL NaHCO3 was dispensed into the middle lane. The plate was incubated at 37°C for 15 min to polymerize collagen I. After incubation, HBSS (+) without phenol red (Fujifilm Wako) was added to the gel channel to prevent the gel from drying out. […] The suspension was injected into capillary lanes precoated with fibronectin/collagen IV solution (PharmCo-Cell). After seeding the cells, the plate was incubated for 4 h at a tilt to allow the cells to adhere to the gel. […]
Permeability experiments were performed on day 10, at 48 h after seeding hiPS-BMECs on the plate. […] In all permeability experiments, the amount of lucifer yellow transported through the paracellular pathway to the receiver side was measured with a SpectraMax i3x (Molecular Devices, San Jose, CA) as a measure of cell-to-cell tightness. […] The apparent permeability coefficient (Papp) was calculated as follows: Papp=(dQ/dt)/D0×S
where dQ/dt, D0, and S are the transport velocity of the test drugs, the initial concentration of test drugs on the donor side, and the surface area of the extracellular matrix hydrogel in the middle lane, respectively. The efflux ratio value was calculated from the Papp value in the capillary-to-brain (A-to-B) and brain-to-capillary (B-to-A) directions as follows: Effluxratio=Papp,B-to-A/Papp,A-to-B.
The test drugs were quantified using a high-performance liquid chromatography (HPLC)-tandem mass spectrometry system composed of a Nexera-XR (Shimazu, Kyoto, Japan) HPLC system connected to a Qtrap4500 (AB Sciex, Foster City, CA, USA) mass spectrometer with an electrospray ionization interface. […]

As for `CC(C)NCC(O)COc1ccc(CC(N)=O)cc1` (stereo not drawn) [Atenolol], for the setting “pH 7.4”, the Papp A→B (commonly how fast a substance crosses the layer from the apical side) at 4 h is 0.822 ×10⁻⁶ cm/s and the Papp B→A (as a rule, how fast a substance crosses the layer from the basolateral side) at 4 h is 0.633 ×10⁻⁶ cm/s. In addition, the efflux ratio – broadly, a quotient of directional permeabilities that is used to spot active efflux – at 4 h (pH 7.4, Efflux ratio (B-to-A/A-to-B), Control) was 0.771.
